# Data source: PubChem BioAssay AID1259254 (NCATS, 2017)
# Test: 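Gene knock-downs that lead to re-replication, shown by excess G2 DNA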 (primary screen)
# System: human HCT116 colorectal cancer cells
# Reagents: single siRNA against human genes
# Time to read-out: 3 days
# Measured: 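Nuclei stained with Hoechst and imaged; cell-cycle phase assigned by DNA content; G2 share scaled per plate, non-targeting siRNA 0%, GMNN siRNA 100%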
# Scale: G2 robust z-score and G2 cells, % of GMNN control: higher = more G2 cells, more excess DNA replication; raw share of cells in G2: higher = larger share of cells with G2 DNA content
# Hit rule: 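Active siRNAs have a G2 robust z of 5 or more median absolute deviations over the median, which in these data means about 38% or higher of GMNN control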
# The deposit covers about 59,000 reagents; this is a part drawn at random. About 1,550 of all reagents (2.6%) were called active. 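G2 share is only a proxy for re-replication; each gene was hit by three separate siRNAs, and active genes were retested.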 Raw values vary from plate to plate and are shown uncorrected. Reagents against one gene are numbered here. No sequences are given here. Not stated in the record: the amount of reagent.
Target gene,reagent,G2 robust z-score,"G2 cells, % of GMNN control",raw share of cells in G2 (%),Outcome
GATA1 (GATA binding protein 1),1,0.362,5.51,7.43,inactive
GATA1 (GATA binding protein 1),2,1.29,12.1,8.25,inactive
GATA1 (GATA binding protein 1),3,-1.16,-5.19,1.22,inactive
SACK1E (scaffolding CK1 anchoring protein E),1,-0.997,-4.05,2.16,inactive
SACK1E (scaffolding CK1 anchoring protein E),2,-0.632,-1.48,3.65,inactive
SACK1E (scaffolding CK1 anchoring protein E),3,0.91,9.37,6.29,inactive
C6orf120 (chromosome 6 open reading frame 120),1,-0.952,-3.73,2.49,inactive
C6orf120 (chromosome 6 open reading frame 120),2,-0.79,-2.59,2.28,inactive
C6orf120 (chromosome 6 open reading frame 120),3,1.05,10.3,9.07,inactive
KLHL25 (kelch like family member 25),1,-0.426,-0.029,4.21,inactive
KLHL25 (kelch like family member 25),2,1.53,13.7,9.2,inactive
KLHL25 (kelch like family member 25),3,4.62,35.4,20.3,inactive
CAMK4 (calcium/calmodulin dependent protein kinase IV),1,-0.548,-0.891,5.31,inactive
CAMK4 (calcium/calmodulin dependent protein kinase IV),2,-0.363,0.415,5.55,inactive
CAMK4 (calcium/calmodulin dependent protein kinase IV),3,-0.467,-0.319,3.91,inactive

Single entries from the list:
For “G2 cells, % of GMNN control”, C6orf120 (chromosome 6 open reading frame 120) #1 reads -3.73
Value of CAMK4 (calcium/calmodulin dependent protein kinase IV) #1 in “Outcome”: inactive
CAMK4 (calcium/calmodulin dependent protein kinase IV) #2, raw share of cells in G2 (%): 5.55

The results go on:
Target gene,reagent,G2 robust z-score,"G2 cells, % of GMNN control",raw share of cells in G2 (%),Outcome
PIEZO1-AS1 (PIEZO1 antisense RNA 1),1,-0.912,-3.45,2.8,inactive
PIEZO1-AS1 (PIEZO1 antisense RNA 1),2,5.38,40.8,18,active
PIEZO1-AS1 (PIEZO1 antisense RNA 1),3,3.82,29.8,16.3,inactive
MRPL46 (mitochondrial ribosomal protein L46),1,-1.29,-6.14,2.11,inactive
MRPL46 (mitochondrial ribosomal protein L46),2,-0.7,-1.96,3.09,inactive
MRPL46 (mitochondrial ribosomal protein L46),3,-0.911,-3.44,2.1,inactive
SPRNP1 (shadow of prion protein pseudogene 1),1,-0.6,-1.25,4.27,inactive
SPRNP1 (shadow of prion protein pseudogene 1),2,2.54,20.9,11.4,inactive
SPRNP1 (shadow of prion protein pseudogene 1),3,0.548,6.82,6.22,inactive
RPA4 (replication protein A4),1,-1.43,-7.1,1.67,inactive
RPA4 (replication protein A4),2,1.07,10.5,10.9,inactive
RPA4 (replication protein A4),3,0.753,8.26,6.93,inactive
ESD (esterase D),1,0.464,6.23,7.53,inactive
ESD (esterase D),2,-0.173,1.75,5.83,inactive
ESD (esterase D),3,-0.253,1.19,4.06,inactive
